Binding data for one substance are collected here from paper PMC5833442.

The chains behind the UniProt entries cited, without tags or fusion partners. Residues count along the entry.
UniProt P02748, residues 22-559: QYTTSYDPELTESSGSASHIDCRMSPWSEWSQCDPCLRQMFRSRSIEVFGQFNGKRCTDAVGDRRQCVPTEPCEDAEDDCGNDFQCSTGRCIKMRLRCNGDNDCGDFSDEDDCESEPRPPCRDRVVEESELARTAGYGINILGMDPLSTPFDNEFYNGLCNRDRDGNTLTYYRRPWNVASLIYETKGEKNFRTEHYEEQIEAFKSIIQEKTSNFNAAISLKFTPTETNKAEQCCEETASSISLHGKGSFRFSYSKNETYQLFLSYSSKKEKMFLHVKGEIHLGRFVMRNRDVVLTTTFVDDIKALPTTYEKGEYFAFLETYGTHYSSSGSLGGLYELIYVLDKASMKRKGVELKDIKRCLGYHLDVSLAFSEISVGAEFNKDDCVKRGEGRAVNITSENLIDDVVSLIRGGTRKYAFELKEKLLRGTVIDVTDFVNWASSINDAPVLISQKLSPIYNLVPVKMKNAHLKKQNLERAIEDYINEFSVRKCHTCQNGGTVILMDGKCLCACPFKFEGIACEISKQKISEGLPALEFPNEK
UniProt P08238: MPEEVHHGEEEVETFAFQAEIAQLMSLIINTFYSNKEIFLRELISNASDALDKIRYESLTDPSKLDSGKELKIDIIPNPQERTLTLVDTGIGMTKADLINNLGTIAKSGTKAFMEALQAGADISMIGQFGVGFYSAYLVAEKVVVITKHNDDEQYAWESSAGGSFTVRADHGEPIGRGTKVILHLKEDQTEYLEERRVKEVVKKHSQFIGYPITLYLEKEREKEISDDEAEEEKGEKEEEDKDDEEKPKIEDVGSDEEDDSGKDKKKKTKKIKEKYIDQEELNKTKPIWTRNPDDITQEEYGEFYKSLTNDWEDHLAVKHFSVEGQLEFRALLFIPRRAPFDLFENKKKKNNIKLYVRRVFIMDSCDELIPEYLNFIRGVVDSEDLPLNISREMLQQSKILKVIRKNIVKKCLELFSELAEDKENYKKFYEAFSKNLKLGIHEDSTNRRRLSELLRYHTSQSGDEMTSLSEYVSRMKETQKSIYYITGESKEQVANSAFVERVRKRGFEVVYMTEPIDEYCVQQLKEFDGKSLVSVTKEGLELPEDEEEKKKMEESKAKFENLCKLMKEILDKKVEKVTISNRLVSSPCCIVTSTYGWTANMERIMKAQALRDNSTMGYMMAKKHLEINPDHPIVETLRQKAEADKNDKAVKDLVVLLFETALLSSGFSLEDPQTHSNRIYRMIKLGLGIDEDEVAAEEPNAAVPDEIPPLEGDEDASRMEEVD
UniProt P38646, residues 47-679: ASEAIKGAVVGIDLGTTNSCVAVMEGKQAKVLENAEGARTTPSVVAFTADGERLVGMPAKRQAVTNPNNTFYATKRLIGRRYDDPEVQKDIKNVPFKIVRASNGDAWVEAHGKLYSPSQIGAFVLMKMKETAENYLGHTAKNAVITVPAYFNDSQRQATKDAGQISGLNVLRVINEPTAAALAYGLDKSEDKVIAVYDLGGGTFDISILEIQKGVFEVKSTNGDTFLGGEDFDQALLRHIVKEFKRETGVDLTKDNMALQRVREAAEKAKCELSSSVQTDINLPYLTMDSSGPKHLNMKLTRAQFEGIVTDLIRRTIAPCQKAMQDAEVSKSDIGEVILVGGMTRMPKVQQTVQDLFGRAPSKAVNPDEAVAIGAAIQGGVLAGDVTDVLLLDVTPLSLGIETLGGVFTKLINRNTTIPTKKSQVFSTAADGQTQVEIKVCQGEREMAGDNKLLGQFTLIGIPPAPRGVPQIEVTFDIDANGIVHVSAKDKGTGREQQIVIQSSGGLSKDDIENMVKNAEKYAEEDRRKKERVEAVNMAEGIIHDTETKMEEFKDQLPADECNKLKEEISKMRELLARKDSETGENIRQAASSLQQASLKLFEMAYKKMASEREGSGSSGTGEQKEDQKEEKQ

Assay [1] addresses purified human C9 (human) (UniProt P02748). As to the kind of experiment: ELISA; competitive ELISA: wells coated with C9 (100 ng/well) overnight; mortalin pre-mixed with increasing amounts of Hsp90β or BSA added 1 h at 37 °C; bound mortalin detected; both purified. On the technique in general: ELISA stands for enzyme-linked immunosorbent assay.
The target of assay [2] is recombinant human Hsp90β (human) (UniProt P08238). As to the kind of experiment: ELISA; wells coated with recombinant Hsp90β or BSA; recombinant His-tagged mortalin added 60 min at 37 °C; detection with anti-His; binding to BSA subtracted; both purified.

Results are given in words; binding and its absence hold for the method and conditions named. Some entries that bind do so weakly or less than the wild type.

As for “recombinant human mortalin with a 6xhis-tag (from UniProt P38646 47-679)”, the binding entry in assay [1] and in assay [2] was “binds” throughout.
